# Literature values in US4902791A, “Nitrosourea derivatives, process for their preparation and medicaments containing them” (Sanofi S.A., priority 1983, dated 1990).
# For at least one compound, name, drawing or mass did not settle the structure.
# How the values were obtained:
# [1] = cited from earlier work
# [2] = cited from earlier work; remark: listed apart in the source
smiles,measurement,setting,value
"O=NN(CCCl)C(=O)NC1CCCCC1 [CCNU, 1-(2-chloro-ethyl)-3-cyclohexyl nitrosourea]",cytostatic / oncostatic / antineoplasic activity,[1],powerful cytostatic and oncostatic activity
"CC(=O)OC[C@H]1OC(OC(C)=O)[C@H](NC(=O)N(CCCl)N=O)[C@@H](OC(C)=O)[C@@H]1OC(C)=O (some centres unmarked) [GCNU, 3-(2-chloro-1-ethyl-2'-desoxy-glucopyranosyl-14,3',4"",6'-tetracetate)nitrosourea]",toxicity,[2],low toxicity
"CC1CCC(NC(=O)N(CCCl)N=O)CC1 (centres unmarked) [Me CCNU, 1-(2-chloro-ethyl)-3-(4-methyl-cyclohexyl)nitrosourea]",cytostatic / oncostatic / antineoplasic activity,[1],powerful cytostatic and oncostatic activity
"CC(=O)O[C@@H]1[C@H](OC(C)=O)COC(NC(=O)N(CCCl)N=O)[C@@H]1OC(C)=O (some centres unmarked) [RPCNU, 1-(2-chloro-ethyl) 3-(ribopyranosyl-2',3',4'-triacetate)-nitrosourea]",toxicity,[2],low toxicity
"CC(=O)O[C@H]1[C@H](OC(C)=O)COC(NC(=O)N(CCCl)N=O)[C@@H]1OC(C)=O (some centres unmarked) [XPCNU, 1-(2-chloro-ethyl) 3-(xylopyranosyl 2',3',4'-triacetate)-nitrosourea]",toxicity,[2],low toxicity
